Data as given in PubChem BioAssay AID1259286 (Sanger Institute, 2017).

Assay: 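Kinase knock-downs that reduce colorectal cancer cell viability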 (primary screen)
Cell system: NCI-H630 human colorectal cancer cells
Reagent: siRNA pool against human genes
Conditions: anchor drugs BYL719 at 1 µM, cetuximab at 5 µg/ml or trametinib at 10 nM, or DMSO vehicle alone; exposure time not given
Detection: 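Replicate-averaged viability as a fraction of non-targeting control, knock-down-alone robust z-score, and per-drug synergy scores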
Direction: viability z-score, knock-down alone: higher = more viable cells, weaker knock-down effect; viability vs control, knock-down alone: higher = more viable cells; synergy score with trametinib: higher = stronger synergistic killing with trametinib; synergy score with BYL719: higher = stronger synergistic killing with BYL719; synergy score with cetuximab: higher = stronger synergistic killing with cetuximab
Rule for the call: 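a gene is called essential when its knock-down-alone viability robust z-score is below -3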
Meaning of the calls: active = essential when knocked down alone; inactive = not essential alone
Shown is one part, drawn at random, of 794 reagents. In the full data, 17 (2.1%) are marked active. 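Calls use knock-down alone only; synergy above 0.15 marked separately; viability seems capped at control level; exposure time not given.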 A number with no mark means an inactive call. Not given: the amount of reagent, the time to read-out.

| target gene | viability z-score, knock-down alone | viability vs control, knock-down alone (fraction of control) | synergy score with trametinib | synergy score with BYL719 | synergy score with cetuximab |
| --- | --- | --- | --- | --- | --- |
| PRKY | -1.18 | 0.938 | -0.0161 | -0.0487 | 0.0151 |
| CDK14 | 0.464 | 1 | -0.0479 | 0.00912 | 0.0327 |
| CDK19 | 0.00392 | 0.983 | -0.0644 | 0.0737 | 0.0555 |
| ULK3 | 0.464 | 1 | -0.0479 | -0.0814 | -0.0176 |
| FCSK | 0.464 | 1 | 0.02 | -0.0404 | 0.032 |
| EPHA1 | 0.464 | 1 | -0.038 | -0.0672 | 0.0739 |
| TJP2 | 0.464 | 1 | 0.0303 | 0.0312 | -0.049 |
| PRKCSH | 0.464 | 1 | -0.0299 | -0.054 | -0.00954 |
| NR4A2 | 0.464 | 1 | 0.0589 | 0.109 | 0.0836 |
| PTEN | -0.802 | 0.952 | -0.0935 | -0.0773 | -0.0353 |
| CIT | 0.464 | 1 | -0.0479 | 0.0896 | 0.14 |
| BPTF | 0.207 | 0.99 | 0.00584 | -0.0624 | 0.0951 |
| PIK3CG | 0.314 | 0.994 | -0.00189 | -0.0866 | 0.073 |
| PRKD2 | 0.464 | 1 | -0.0329 | 0.0493 | -0.117 |
| OXSR1 | -0.851 | 0.95 | -0.0952 | -0.0362 | -0.0543 |
| MAP3K6 | 0.464 | 1 | -0.0479 | -0.0787 | 0.0365 |
| TSSK2 | -0.314 | 0.971 | -0.0268 | -0.103 | 0.0277 |
| DDR2 | 0.464 | 1 | -0.0424 | -0.0803 | 0.039 |
| STK32A | 0.464 | 1 | -0.0479 | -0.0814 | -0.0581 |
| CKB | 0.464 | 1 | -0.0479 | -0.0814 | -0.0365 |
| CSF1R | -1.28 | 0.934 | -0.0719 | 0.0591 | 0.0298 |
| WNK3 | 0.0532 | 0.984 | -0.0627 | -0.0957 | -0.134 |
| AKT3 | -0.0377 | 0.981 | -0.0659 | 0.0389 | -0.137 |
| RPS6KA3 | 0.464 | 1 | 0.00961 | -0.0443 | -0.0341 |
| DTYMK | 0.464 | 1 | -0.0479 | 0.0033 | 0.0177 |
| STK17A | -1.22 | 0.936 | -0.0051 | 0.0453 | 0.0917 |
| ANKK1 | 0.464 | 1 | -0.0479 | -0.0625 | 0.00724 |
| TBK1 | 0.464 | 1 | -0.0479 | -0.0593 | 0.00432 |
| SRC | -0.0696 | 0.98 | -0.0671 | -0.0999 | 0.0782 |
| WNK2 | 0.464 | 1 | -0.0185 | -0.0814 | -0.0404 |
| ERBB4 | 0.464 | 1 | 0.0562 | -0.0286 | 0.00847 |
| SOS2 | 0.464 | 1 | -0.0479 | 0.0164 | 0.000161 |
| SYK | 0.464 | 1 | -0.00767 | 0.084 | 0.147 |
| CSNK1E | -0.382 | 0.968 | -0.0783 | -0.0554 | 0.0431 |
| STAG2 | 0.464 | 1 | -0.0479 | -0.0814 | -0.00178 |
| CHD4 | -0.967 | 0.946 | -0.0994 | 0.00162 | 0.0595 |
| EFNA5 | 0.464 | 1 | -0.0133 | -0.0814 | -0.0792 |
| SBK1 | -0.214 | 0.974 | -0.0723 | -0.105 | -0.0938 |
| EPHB4 | 0.464 | 1 | -0.0479 | -0.0814 | -0.121 |
| TYK2 | 0.464 | 1 | -0.0273 | -0.0814 | 0.059 |
| SOX9 | 0.464 | 1 | -0.0479 | -0.0305 | 0.0787 |
| PSKH2 | 0.0989 | 0.986 | -0.0336 | -0.0278 | -0.00909 |
| CHKA | -2.69 | 0.881 | -0.13 | 0.0185 | -0.0257 |
| SMG1 | 0.464 | 1 | -0.0479 | 0.0619 | 0.0669 |
| CAD | 0.464 | 1 | -0.0479 | -0.0814 | 0.00732 |
| GSK3A | -1.4 | 0.93 | -0.115 | -0.128 | -0.00709 |
| MYH10 | 0.115 | 0.987 | -0.0226 | 0.0878 | 0.0578 |
| PAPSS1 | 0.464 | 1 | -0.0479 | -0.04 | 0.0138 |
| RPS6KC1 | 0.464 | 1 | -0.0479 | 0.0684 | 0.0249 |
| DLG4 | 0.0363 | 0.984 | -0.0385 | -0.0963 | 0.0745 |

3 entries already listed, ordered by “viability vs control, knock-down alone (fraction of control)”, lowest first:
| target gene | viability z-score, knock-down alone | viability vs control, knock-down alone (fraction of control) | synergy score with trametinib | synergy score with BYL719 | synergy score with cetuximab |
| --- | --- | --- | --- | --- | --- |
| PSKH2 | 0.0989 | 0.986 | -0.0336 | -0.0278 | -0.00909 |
| TYK2 | 0.464 | 1 | -0.0273 | -0.0814 | 0.059 |
| SOX9 | 0.464 | 1 | -0.0479 | -0.0305 | 0.0787 |
